Data: patent EP4201483A1, “LPL1 DERIVED IMMUNE ENHANCING PEPTIDES” (priority 2021, dated 2023)
No constants are given. Whether binding was seen depends on the method and setting. Some results given as binding are weak or reduced against the parent protein; the word gives no strength.

B1: LNC2 (64 aa) (peptide)
peptide: DEIVKELRSRYNISTEKSPILKMHIDGDLKGSSVGYRKLEIDFSKRENSKLSVIEFLSYKPAKK
B2: LNC1 (64 aa), LNC1 core of Lpl1 of S. aureus (peptide)
peptide: TAKGHYFVTTFYRNGKLPDEKNYKIEMKNNKIILLDEVKDDKLKQKIENFKFFGQYANLKELRK

What follows are binders tested against human heat shock protein Hsp90α (human) (UniProt P07900) (assay: dot blot assay, direct interaction with Hsp90α).
B1 was tested, and the binding was “binds”.
In the case of GHYFVTTFY [L13 peptide], the binding is reported as “binds”.
In the case of RSRYNISTEKSPILKMHIDGDLKGSSVGYRKLEIDFSK [MNC3 (38aa)], the binding is reported as “binds”.
In the case of TAKGHYFVTTFYRNG [L15 peptide], the binding is reported as “binds”.
B2 was tested, and the binding was “binds”.
